The source of these data is patent US4460605A, “2-[2'-Hydroxy-3'-(1,1-dimethylpropylamino)-propoxy ]-β-phenylpropiophenone, its physiologically acceptable acid addition salts, and pharmaceutical compositions” (Helopharm W. Petrik & Co., priority 1981, dated 1984).

Where a name gives a salt, the structure may show the parent alone.

The nature of this data set: LD50 acute toxicity in dog. As to conditions: in vivo, iv; dog i.v.

As a reminder, the LD50 is the dose at which mortality reaches 50%. Read a high LD50 as a less toxic substance. In turn, `CCCNCC(O)COc1ccccc1C(=O)CCc1ccccc1` (stereo not shown) [propafenone-HCl] yielded a median lethal dose (LD50) of 15 mg/kg.
